Values from PubChem BioAssay AID504808 (Drosophila RNAi Screening Center, 2011)
Aim: 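Chromatin factors that keep E2F targets switched off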 (primary screen). Cell system: Drosophila S2 cells. Reagent: long dsRNA against Drosophila genes. Measurement: 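Dual luciferase plate measurements; E2F-specific signal taken as firefly over Renilla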. Reading the numbers: E2F firefly: higher = more E2F reporter activity; Renilla normaliser: higher = more normaliser reporter signal. Rule for the call: 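Called active if the normalised E2F reporter went up by over 50%; the cutoff is arbitrary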.
In all, the deposit lists about 21,000 reagents; this is an unselected part of those with a known target gene and a result. In the full data, 18 (0.084%) got an active call. 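Raw counts without plate normalisation, one of two replicates; the ratio scores behind the calls were not deposited.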 A number with no mark means an inactive call. Not stated in the record: the amount of reagent, the time to read-out.

{"Target gene": "CG9068", "DRSC id": "DRSC07329", "E2F firefly, rep 1": 1.39e5, "Renilla normaliser, rep 1": 5059}
{"Target gene": "CG31525", "DRSC id": "DRSC12004", "E2F firefly, rep 1": 96452, "Renilla normaliser, rep 1": 4072}
{"Target gene": "tna (tonalli)", "DRSC id": "DRSC09053", "E2F firefly, rep 1": 1.36e5, "Renilla normaliser, rep 1": 5113}
{"Target gene": "tna (tonalli)", "DRSC id": "DRSC10937", "E2F firefly, rep 1": 1.09e5, "Renilla normaliser, rep 1": 5115}
{"Target gene": "aft (adrift)", "DRSC id": "DRSC07576", "E2F firefly, rep 1": 69695, "Renilla normaliser, rep 1": 3230}
{"Target gene": "CG7289", "DRSC id": "DRSC00697", "E2F firefly, rep 1": 96585, "Renilla normaliser, rep 1": 4086}
{"Target gene": "Trissin", "DRSC id": "DRSC14994", "E2F firefly, rep 1": 1.29e5, "Renilla normaliser, rep 1": 6899}
{"Target gene": "CG13038", "DRSC id": "DRSC09919", "E2F firefly, rep 1": 1.68e5, "Renilla normaliser, rep 1": 6443}
{"Target gene": "Cox10 (Cytochrome c oxidase assembly factor 10)", "DRSC id": "DRSC02804", "E2F firefly, rep 1": 75226, "Renilla normaliser, rep 1": 3792}
{"Target gene": "Spn47C (Serpin 47C)", "DRSC id": "DRSC07030", "E2F firefly, rep 1": 157, "Renilla normaliser, rep 1": 38}
{"Target gene": "Tpc1", "DRSC id": "DRSC15614", "E2F firefly, rep 1": 1.36e5, "Renilla normaliser, rep 1": 6140}
{"Target gene": "Tpc1", "DRSC id": "DRSC16074", "E2F firefly, rep 1": 73348, "Renilla normaliser, rep 1": 3776}
{"Target gene": "Mettl3 (Methyltransferase like 3)", "DRSC id": "DRSC15921", "E2F firefly, rep 1": 1.14e5, "Renilla normaliser, rep 1": 5596}
{"Target gene": "Frl (Formin-like)", "DRSC id": "DRSC09300", "E2F firefly, rep 1": 1.27e5, "Renilla normaliser, rep 1": 3008}
{"Target gene": "Frl (Formin-like)", "DRSC id": "DRSC10027", "E2F firefly, rep 1": 1.50e5, "Renilla normaliser, rep 1": 7772}
{"Target gene": "Frl (Formin-like)", "DRSC id": "DRSC10716", "E2F firefly, rep 1": 1.40e5, "Renilla normaliser, rep 1": 6516}
{"Target gene": "hh (hedgehog)", "DRSC id": "DRSC16965", "E2F firefly, rep 1": 1.13e5, "Renilla normaliser, rep 1": 5516}
{"Target gene": "asl (asterless)", "DRSC id": "DRSC12319", "E2F firefly, rep 1": 62689, "Renilla normaliser, rep 1": 2999}
{"Target gene": "PPO1 (Prophenoloxidase 1)", "DRSC id": "DRSC05929", "E2F firefly, rep 1": 81945, "Renilla normaliser, rep 1": 3335}
{"Target gene": "mRpL40 (mitochondrial ribosomal protein L40)", "DRSC id": "DRSC15749", "E2F firefly, rep 1": 1.47e5, "Renilla normaliser, rep 1": 6476}
{"Target gene": "pncr004:X (retired record)", "DRSC id": "DRSC19295", "E2F firefly, rep 1": 91978, "Renilla normaliser, rep 1": 2604}
{"Target gene": "CG18265", "DRSC id": "DRSC10310", "E2F firefly, rep 1": 1.60e5, "Renilla normaliser, rep 1": 7218}
{"Target gene": "Polr3I (RNA polymerase III subunit I)", "DRSC id": "DRSC19922", "E2F firefly, rep 1": 1.73e5, "Renilla normaliser, rep 1": 6058}
{"Target gene": "RhoBTB (Rho-related BTB domain containing)", "DRSC id": "DRSC11877", "E2F firefly, rep 1": 75215, "Renilla normaliser, rep 1": 4320}
{"Target gene": "Or67b (Odorant receptor 67b)", "DRSC id": "DRSC11241", "E2F firefly, rep 1": 91413, "Renilla normaliser, rep 1": 4901}
{"Target gene": "CG16926", "DRSC id": "DRSC06637", "E2F firefly, rep 1": 70911, "Renilla normaliser, rep 1": 3194}
{"Target gene": "xmas", "DRSC id": "DRSC21306", "E2F firefly, rep 1": 1.30e5, "Renilla normaliser, rep 1": 6266}
{"Target gene": "betaTub56D (beta-Tubulin at 56D)", "DRSC id": "DRSC07583", "E2F firefly, rep 1": 1.33e5, "Renilla normaliser, rep 1": 4850}
